Experimental data: doi:10.1101/2020.12.17.423307
Results are given in words; binding and its absence hold for the method and conditions named. Binding can be weak; no strength is given. For some of these results: In cells and extracts the contact can be indirect. Values belong to the binder of their own block, whether it stands above or below them.

Tests used:
[1] = target: TRAPPC11 (Drosophila melanogaster); experiment: SEC-MALS + other: interferometric scattering microscopy
[2] = target: TRAPPC11 (Drosophila melanogaster); experiment: cryo-EM structure
[3] = target: TRAPPC11 (Drosophila melanogaster); experiment: co-purification of co-expressed subunits
[4] = target: TRAPPC11 (Drosophila melanogaster); experiment: cross-linking

binding [1]: binds
B1: TRAPPC2 (protein, UniProt Q9VUZ1 1-139)
chain: MSTYYFVIVGQNDNPIYEKEFSTVNKELRKEDHRHLTQFIAHAALDLVDEHKWKTANMQLKSIDRFNQWFVSAFITASQIRFIIVHDNKNDEGIKNFFNEMYDTYIKNSMNAFYRINTPIKSPMFEKKSEIFGRKYLLS

binding [2]: binds
binding [3]: binds
binding [4]: binds
B2: TRAPPC13 (protein, UniProt Q95TN1 1-438)
chain: MEMVEPDAHLVALKVMRLMRPTLVGLGPVVTCEPTDLVQRFSSSQESDGMSGACAETLAAGQVLLLPQSFGSIYLGETFASYICVHNTTPNPVECVTVKADLQSNTSRINLSMHENAKSPVVLPPGGTIDDVIRYEVKEIGTHILVCEVNYSTPAGYAQSLRKFFKFQVLKPLDVKTKFYNAEIDEIYLEAQIQNVTTSPFCLEKVELDGSEDYSVTPLNTLPNGESVFTVKHMLQPNNSCQFLYCIKPKGDIAKNVDTLRQFNNVGKLDIVWRSNLGEKGRLQTSQLQRLPFECKTLRLEVLDAKNTIKIGTIFTFNCRVTNTSEHPMKLNVRLAAKFSPDSQYTGCADFMLNLLQSGESAEFPLSVCPSKLGLVKITPLVLTNTLQNEQFTIENVVDVFVVNSDYDNDTTTHQNKLIRYESAASCLTQKQVQLQVV
